Laboratory results as given in PubChem BioAssay AID248 (DTP/NCI, 2004).
The list is a part of this screen's results and no random one: it is rich in T/C values a quarter to a half above the control, in often repeated tests (any T/C) and in doses without a T/C. Further doses and runs are listed elsewhere. T/C gives the treated animals as a percentage of the vehicle group. Some doses have a count of surviving animals in place of a T/C: the source files T/C as zero there, which appears to mark a toxic dose or a test without result, not a measured value. Some doses without a T/C left all or most animals alive at the check, yet need not have been tolerated: survival well below the control is almost never listed, so the zero probably covers shortened survival too. Survivors were counted at the toxicity check, usually on the fifth day, unless a day is given; later deaths do not show. Schedules are NCI's codes, read here as Q, the interval in days (D) or hours (H), X, the number of doses. Some entries were tested several times; their values stand side by side, smallest first. Where survival is the endpoint, the PubChem record calls one and a half times the control and up active, and a quarter to a half above the control has no call in these data; cut-offs in other NCI protocols can differ. Some T/C values carry the count of animals alive at the toxicity check (mostly the fifth day); where none is given, no animal had died by that day.

Tested on: L1210 leukemia ip in BDF1 mice, survival T/C
Assay: NCI In Vivo Anticancer Drug Screen. Data for tumor model L1210 Leukemia (intraperitoneal) in B6D2F1 (BDF1) mice
Settings: T/C endpoint: mean survival time, higher T/C = longer survival
[1] = dose: 400.0 mg/kg/injection, schedule: Q01DX009 (ip), vehicle: saline with Tween-80
[2] = dose: 100.0 mg/kg/injection, schedule: Q01DX009 (ip), vehicle: saline with Tween-80
[3] = dose: 200.0 mg/kg/injection, schedule: Q01DX009 (ip), vehicle: saline with Tween-80
[4] = dose: 200.0 mg/kg/injection, schedule: Q01DX009 (ip), vehicle: Klucel (hydroxypropylcellulose) (HPC)
[5] = dose: 400.0 mg/kg/injection, schedule: Q01DX009 (ip), vehicle: saline
[6] = dose: 200.0 mg/kg/injection, schedule: Q01DX001 (ip), vehicle: Klucel (hydroxypropylcellulose) (HPC)

Q: With `NNC(=O)CNc1ccc(F)c(F)c1` as the compound, how does the survivor count (dose: 400.0 mg/kg/injection, schedule: Q04DX002 (ip), vehicle: Klucel (hydroxypropylcellulose) (HPC)) read?
A: 0 of 3

Q: Which survivor count [1] does the source give for `O=Cc1ccc(OC(=O)Nc2ccccc2)cc1` here?
A: 3 of 6

Q: `CC(=O)Nc1cc2c(cc1[N+](=O)[O-])-c1ccccc1C2O` (stereo not given) was tested. Which survivor count (dose: 200.0 mg/kg/injection, schedule: Q01DX001 (ip), vehicle: saline) did it give?
A: 6 of 6

Q: What about the survivor count (dose: 400.0 mg/kg/injection, schedule: Q01DX001 (ip), vehicle: saline) of the same compound?
A: 0 of 6

Q: Which results are given for `CC1CCC2(NC1)OC1CC3C4CCC5CC(OC6OC(CO)C(OC7OC(CO)C(O)C(OC8OCC(O)C(O)C8O)C7OC7OC(CO)C(O)C(O)C7O)C(O)C6O)CCC5(C)C4CCC3(C)C1C2C` (stereo not given)?
A: survivor count (dose: 50.0 mg/kg/injection, schedule: Q01DX009 (ip), vehicle: saline with Tween-80): 3 of 3; survivor count [2]: 0 of 3; survivor count [3]: 0 of 3

Q: How did the survivor count (dose: 50.0 mg/kg/injection, schedule: Q01DX009 (ip), vehicle: Klucel (hydroxypropylcellulose) (HPC)) turn out when `COc1ccc(NC(=O)Oc2ccc(Cl)cc2Cl)c(Cl)c1` was run?
A: 0 of 6

Q: What about the survivor count (dose: 100.0 mg/kg/injection, schedule: Q01DX009 (ip), vehicle: Klucel (hydroxypropylcellulose) (HPC)) of the same compound?
A: 5 of 6

Q: What about the survivor count [4] of the same compound?
A: 1 of 6

Q: And the survivor count (dose: 400.0 mg/kg/injection, schedule: Q01DX009 (ip), vehicle: Klucel (hydroxypropylcellulose) (HPC))?
A: 0 of 6

Q: What does the source list for `NCCCCC(NC(=O)OCc1ccccc1)C(=O)CCl` (stereo not given)?
A: survivor count (dose: 40.0 mg/kg/injection, schedule: Q04DX002 (ip), vehicle: saline): 1 of 3; survivor count (dose: 100.0 mg/kg/injection, schedule: Q04DX002 (ip), vehicle: saline): 0 of 3; survivor count (dose: 200.0 mg/kg/injection, schedule: Q04DX002 (ip), vehicle: saline): 0 of 3; survivor count (dose: 400.0 mg/kg/injection, schedule: Q04DX002 (ip), vehicle: saline): 0 of 3

Q: With `CCCCCCCCCCOB(OCCCCCCCCCC)OCCCCCCCCCC` as the compound, how does the survivor count [2] read?
A: 0 of 6

Q: And the survivor count [3]?
A: 0 of 6

Q: What about the survivor count [1] of the same compound?
A: 0 of 6

Q: Which survivor count (dose: 300.0 mg/kg/injection, schedule: Q01DX001 (ip), vehicle: saline) does the source give for `Cc1ccc2c(ccc[n+]2C)c1` here?
A: 0 of 6

Q: How did the survivor count [3] turn out when `Cc1cc(C(C)(C)C)c(Oc2ccc([N+](=O)[O-])cc2S(=O)(=O)O)c(C(C)(C)C)c1` was run?
A: 6 of 6

Q: With `Cc1nc(N)sc1CCCl` as the compound, how does the survivor count (dose: 80.0 mg/kg/injection, schedule: Q01DX015 (ip), vehicle: carboxymethylcellulose (CMC)) read?
A: 3 of 6

Q: What about the survivor count (dose: 120.0 mg/kg/injection, schedule: Q01DX015 (ip), vehicle: carboxymethylcellulose (CMC)) of the same compound?
A: 0 of 6

Q: Which survivor count (dose: 400.0 mg/kg/injection, schedule: Q04DX003 (ip), vehicle: Klucel (hydroxypropylcellulose) (HPC)) does the source give for `NC(=O)c1cccc([N+](=O)[O-])c1Br` here?
A: 3 of 6

Q: Which survivor count [5] does the source give for `NNc1cc(S(=O)(=O)O)cc(C(=O)O)c1O` here?
A: 5 of 6

Q: Which results are given for `CCCCN(C)/N=N/c1[nH]ncc1C(=O)OC`?
A: T/C (dose: 176.0 mg/kg/injection, schedule: Q01DX007 (ip), vehicle: other): 131 % of control; T/C (dose: 400.0 mg/kg/injection, schedule: Q01DX007 (ip), vehicle: other): 136 % of control

Q: With `NC(=O)c1[nH]cnc1/N=N/N(CCCl)Cc1ccccc1` as the compound, how does the T/C [6] read?
A: 140 % of control

Q: What about the T/C (dose: 266.0 mg/kg/injection, schedule: Q01DX001 (ip), vehicle: Klucel (hydroxypropylcellulose) (HPC)) of the same compound?
A: 139 % of control

Q: `COc1ccc(OC)c(NC(=O)CI)c1` was tested. Which survivor count (dose: 100.0 mg/kg/injection, schedule: Q01DX001 (ip), vehicle: Klucel (hydroxypropylcellulose) (HPC)) did it give?
A: 0 of 6

Q: What about the survivor count [6] of the same compound?
A: 1 of 6

Q: What about the survivor count (dose: 400.0 mg/kg/injection, schedule: Q01DX001 (ip), vehicle: Klucel (hydroxypropylcellulose) (HPC)) of the same compound?
A: 0 of 6

Q: `CCC(=O)OC1(c2ccccc2)CCN(C)C1C` (stereo not given) was tested. Which survivor count (dose: 200.0 mg/kg/injection, schedule: Q01DX009 (ip), vehicle: saline) did it give?
A: 1 of 6

Q: And the survivor count (dose: 200.0 mg/kg/injection, schedule: Q04DX003 (ip), vehicle: saline)?
A: 1 of 4

Q: What about the survivor count [5] of the same compound?
A: 0 of 6

Q: And the survivor count (dose: 400.0 mg/kg/injection, schedule: Q04DX003 (ip), vehicle: saline)?
A: 0 of 4

Q: For `CC(=O)Nc1ccc(NC(=O)c2cccc3ccccc23)cc1`, which survivor count [4] is on record?
A: 5 of 6 and 6 of 6

Q: How did the survivor count (dose: 75.0 mg/kg/injection, schedule: Q01DX009 (ip), vehicle: carboxymethylcellulose (CMC)) turn out when `CC1=CC(=O)OC1=O` (tested in a mixture with another compound) was run?
A: 2 of 6

Q: What about the survivor count (dose: 150.0 mg/kg/injection, schedule: Q01DX009 (ip), vehicle: carboxymethylcellulose (CMC)) of the same compound?
A: 3 of 6

Q: And the T/C (dose: 300.0 mg/kg/injection, schedule: Q01DX001 (ip), vehicle: carboxymethylcellulose (CMC))?
A: 126 % of control [5 of 6 alive]

Q: And the survivor count (dose: 300.0 mg/kg/injection, schedule: Q01DX009 (ip), vehicle: carboxymethylcellulose (CMC))?
A: 0 of 6
